These are yes or no findings as the source states them, for the method shown.
B1: antibody 50 (antibody, V domains shown)
VH: QVQLQQSGAELVRPGASVKVSCKASGYAFSNYLIEWVKQRPGQGLEWIGVINPGSGFTKYNEKFKGKATLTADKSSSTAYMQLSSLTSEDSAVYFCARGLYRAMDYWGQGTSVTVSS
VL: DIQMTQSPASQSASLGESVTITCLASQTIGTWLAWYQQKPGKSPQLLIYAAASLADGVPSRFSGGGSGTKFSFKISSLQAEDFVNYYCQQIYSTPYTFGGGTKLEIK
B2: antibody 5 (antibody, V domains shown)
VH: QVTLKESGPGILQPSQTLSLTCSFSGFSLSTFGMGVGWIRQPSGKGLEWLAHIWWDDEKYYNSALKSRLTISKATSKNQAFLKIANVDTADTATYYCARISNYGSNYWYFNVWGTGTTVTVSS
VL: QVVLTQSPALMSASPGEKVTMTCSAGSSVSCMYWYQQKPGSSPRVLIYDTSNLASGVPARFTGSGSGTSYSLTISRMEAEDAASYYCQQWNSYPLTFGAGTKLELK
B3: antibody 22 (antibody, V domains shown)
VH: QVTLKESGPGILQPSQTLSLTCSFSGFSLSTFGMGVGWIRQPSGKGLEWLAHIWWDDEKYYNSALKSRLTISKATSKNQVFLKIANVDTADTATYYCARISNYGSNYWYFNVWGTGTTVTVSS
VL: QVVLTQSPALMSASPGEKVTMTCSAGSSVSYMYWYQQKPGSSPRVLIYDTSNLASGVPARFTGSGSGTSYSLTISRMEAEDAATYYCQQWNSYPLTFGAGTKLELK
B4: antibody 43 (antibody, V domains shown)
VH: QVALKESGPGILQPSQTLSLTCSFSGFSLSTFGMGVGWIRQSSGKGLEWLANIWWDDDKYYNPALKSRLTISKDASKNQAFLKIANVDTADTATYYCARIGNYGSNYWYFDVWGTGTTVTVSS
VL: QIVLTQSPAIMSASPGERVTMTCSANSRISYMYWYQQKPGSSPRLLIYDTSNLASGVPVRFSGSGSGTSYSLTISRMEAEDAATYNCQQWSSYPLTFGAGTKLELK
B5: antibody 44 (antibody, V domains shown)
VH: QVTLKESGPGILQPSQTLSLTCSFSGFSLSTFGMGVGWIRQPSEKGLEWLAHIWWDDDKYYNPALKSRLTISKDTSKNQIFLKITNVDTAETATYYCSRIGNYGSNYWYFDVWGTGTTVTVSS
VL: QIVLTQSPAVMSASPGEKVTMTCTASSSVYYMYWYQQTPGSSPRLLIYDTSNLASGVPVRFSGSGSGTSYSLTISRMEAEDAATYYCQQWNTYPLTFGAGTKLELK
B6: antibody 42 (antibody, V domains shown)
VH: QVTLKESGPGILQPSQTLSLTCSLSGFSLSTFGRGVGWIRQPSGKGLEWLAHIWWDDEKYYNPALKSRLTISKDTSKNQVFLRIANVDTADTATYYCARIQNYGSNYWYFDVWGTGTTVTVSS
VL: LIVLTQSPAIMSASPGEKVTMTCGATSRISYMFWYQQKPGSSPRVLIYDTSNLASGVPVRFSGSGSGTSYSLTISRVEAEDVATYYCQQWNSYPLTFGAGTKLELK
B7: antibody 3 (antibody, V domains shown)
VH: QVTLKESGPGILQPSQTLSLTCSFSGFSLTTFAMGIGWVRQPSGKGLEWLAHIWWDGEKYNNPVLKSRLTISKDTSKNQVFLRIANVDTPDTATYYCARISSIYYIIDNWGQGTSVTVSS
VL: DIVLTQSPATLSVTPGHSVSLSCRASQSISNNLHWYQKKSHESPRLLIKYVSQSISGIPSRFSGSGSGTDFTLSINSVETEDFGMYFCQQSYNWPLTFGAGTKLELK
B8: antibody 16 (antibody, V domains shown)
VH: QVTLKESGPGILQPSQTLSLTCSFSGFSLSTFALGVGWIRQPSGRGLEWLAHIWWDDDKYYNPALKSRLTISKDTSKNHVFLKIANVDTADTATYYCARITTYYYGMDYWGQGTSVTVSS
VL: DIVLSQSPATLSVTPGDSVSLFCRASQSIGNHLHWYQQESHASPRLLIKYASQSISGIPSRFSGSGSGTDFTLSINSVETEDFGMYFCQQSYNWPLTFGAGTKLELK
B9: antibody 34 (antibody, V domains shown)
VH: QVTLKESGPGILQPSQTLSLTCSFSGFSLSTFSLGVGWIRQSSGKGLEWLAHIWWDDEKYYNPALKSRLTISKDTSKNQVFLKIANVDAADTATYYCARAYYSKSYYALDYWGQGTSVTVSS
VL: DIQMTQSPSSLSASLGERVSLTCRASQEISGYLSWLQQKPDGTIKRLIYAASTLDSGVPKRFSGSRSGSDYSLAISSLESEDFADYYCLQYANFPFTFGSGTKLEIK

The binders below were run against mouse iR1 wild type (mouse) (assay: FACS on MEF-DKO cells).

binding, no binding (tested: 3 µg/ml):
B1
B2
B3
B4
B5
B6
B7
B8
B9
